The source of these data is paper PMC8376021.

Chains of the proteins cited; added tags and fusions are not shown. Lines headed by an entry give the natural chain unless they say otherwise; changes in a name come on top. A line that says so, or that is headed by a name, gives the form on record, which may keep a tag or linker. Residues count along the entry.
UniProt P13202, residues 1-382: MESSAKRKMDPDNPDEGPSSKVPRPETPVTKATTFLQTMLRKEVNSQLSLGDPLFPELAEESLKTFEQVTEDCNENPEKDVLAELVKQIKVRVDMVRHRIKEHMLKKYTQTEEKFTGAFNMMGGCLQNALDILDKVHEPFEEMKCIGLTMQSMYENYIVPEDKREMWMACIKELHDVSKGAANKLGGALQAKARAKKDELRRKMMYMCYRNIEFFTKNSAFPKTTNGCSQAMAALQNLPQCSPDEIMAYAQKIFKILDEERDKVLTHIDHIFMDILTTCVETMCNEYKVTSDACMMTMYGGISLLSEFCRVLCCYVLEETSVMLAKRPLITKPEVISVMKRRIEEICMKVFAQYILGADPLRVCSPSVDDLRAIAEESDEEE
Myc-tagged human PML, isoform VI (P29590-4, form named): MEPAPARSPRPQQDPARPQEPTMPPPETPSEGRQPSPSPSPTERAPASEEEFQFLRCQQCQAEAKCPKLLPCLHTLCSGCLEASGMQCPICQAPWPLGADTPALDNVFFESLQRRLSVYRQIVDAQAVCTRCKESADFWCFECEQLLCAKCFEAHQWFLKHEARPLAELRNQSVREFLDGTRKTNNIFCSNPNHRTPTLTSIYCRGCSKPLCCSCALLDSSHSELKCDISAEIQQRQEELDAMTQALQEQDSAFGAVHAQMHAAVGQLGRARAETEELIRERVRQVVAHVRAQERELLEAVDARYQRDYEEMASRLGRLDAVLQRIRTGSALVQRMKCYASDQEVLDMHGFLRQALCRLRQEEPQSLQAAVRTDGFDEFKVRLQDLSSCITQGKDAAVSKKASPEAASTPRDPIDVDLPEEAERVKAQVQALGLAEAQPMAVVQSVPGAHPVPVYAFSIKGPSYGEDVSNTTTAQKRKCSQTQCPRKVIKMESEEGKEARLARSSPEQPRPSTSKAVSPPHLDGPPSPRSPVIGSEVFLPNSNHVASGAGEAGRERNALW

For the assay, the target named is FLAG-tagged humIE1 1-382 (N-terminally extended humIE1 core) (human cytomegalovirus (HCMV)) (UniProt P13202). Description: co-IP; HEK293T co-transfected with FLAG-tagged IE1 variants and Myc-tagged PML variants; lysis in CoIP buffer (50 mM Tris-HCl pH 8.0, 150 mM NaCl, 5 mM EDTA, 0.5% NP-40); IP with anti-FLAG M2 on protein-A-sepharose, 2 h at 4°C; co-precipitated PML detected by Western blot. Background: Immunoblotting shows a protein as a band on a membrane.

Results are given in words; binding and its absence hold for the method and conditions named. In cells and extracts the contact can be indirect. Some binding calls cover weakened binding; strength is not graded here.

For “Myc-tagged human PML, isoform VI (from UniProt P29590-4 1-560)”, the binding entry was “binds”.
